These are yes or no findings as the source states them, for the method shown. Binding seen in cells or lysates may run through a third protein. Some entries that bind do so weakly or less than the wild type.

By UniProt entry, the sequences of proteins in these tests, tags left out.
UniProt Q9HC16: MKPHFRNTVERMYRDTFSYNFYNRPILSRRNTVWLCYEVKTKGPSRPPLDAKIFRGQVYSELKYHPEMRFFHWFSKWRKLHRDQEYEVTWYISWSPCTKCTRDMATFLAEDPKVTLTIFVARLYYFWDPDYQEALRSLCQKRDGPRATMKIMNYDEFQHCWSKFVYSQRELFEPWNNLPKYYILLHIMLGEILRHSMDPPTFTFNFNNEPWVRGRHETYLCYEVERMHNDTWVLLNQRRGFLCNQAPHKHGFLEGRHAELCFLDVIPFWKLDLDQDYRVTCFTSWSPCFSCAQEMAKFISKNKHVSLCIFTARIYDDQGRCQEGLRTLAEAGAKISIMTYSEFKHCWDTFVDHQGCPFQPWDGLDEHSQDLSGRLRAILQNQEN
UniProt P67809: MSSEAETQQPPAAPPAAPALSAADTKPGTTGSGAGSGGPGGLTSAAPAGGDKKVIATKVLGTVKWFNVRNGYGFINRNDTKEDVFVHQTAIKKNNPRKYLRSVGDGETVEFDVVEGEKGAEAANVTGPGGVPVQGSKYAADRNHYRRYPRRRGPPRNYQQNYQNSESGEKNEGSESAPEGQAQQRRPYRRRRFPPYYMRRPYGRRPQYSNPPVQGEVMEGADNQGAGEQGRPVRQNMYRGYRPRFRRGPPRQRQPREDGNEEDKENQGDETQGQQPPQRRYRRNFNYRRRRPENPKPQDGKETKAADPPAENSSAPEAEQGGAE

The source of these data is article PMC11990775.

The target of assay [1] is FLAG-tagged human APOBEC3G (human) (UniProt Q9HC16). As to the kind of experiment: condition: only lysates treated with RNase A (50 µg/ml, 37°C, 30 minutes) prior to immunoprecipitation; co-IP; as a2, but lysates incubated with RNase A (50 µg/ml) at 37°C for 30 minutes prior to immunoprecipitation.
For assay [2] the target is unchanged. As to the kind of experiment: co-IP; 293T cells over-expressing FLAG-tagged mAPOBEC3, hAPOBEC3G or RFP; endogenous partner detected by Western blot; no RNase A. In general terms: A western blot detects proteins with antibodies after separation by electrophoresis.

As for “Y-box binding protein 1 (YB1), endogenous in 293T cells (from UniProt P67809 1-324)”, the binding entry in assay [1] is “no binding”; in assay [2] it was “binds”.
